This is an account of results in PubChem BioAssay AID445 (National Center for Advancing Translational Sciences (NCATS), 2006).

Molecules are shown by their SMILES. Some of the results follow. These are further read-outs of the screen, such as a control signal, another cell line or another target. No call is given for them. Most of these compounds were active or inconclusive in the main read-out, so they are no random draw. Potencies come from curve fits of mixed quality, noted in brackets.

The assay can be described thus: IkB Signaling. The settings on record: ABC-DLBCL IkBa-CBG/CBR dual luciferase ratio (green luciferase fused to IkBa over red control in OCI-Ly3 lymphoma cells), 4 h. Summed up: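 In this assay, an IκBα–CBG68 fusion accumulates when IKK-driven degradation is blocked; native CBR normalizes for cell number. OCI-Ly3 cells were treated 4 h with compound and doxycycline, then green and red light read after Chroma-Glo addition.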
Setting [1] is: measured here: control luc red channel unless noted.
The mark [2] stands for this setting: measured here: IkB-luc green channel.
Setting [3] is: measured here: control luc red channel.

For orientation: AC50 means the concentration at which the activity in the assay is half-maximal. Regarding `COc1ccccc1N1CCN(C(=O)CCSCc2ccccc2F)CC1`, under setting [1], the half-maximal activity concentration (AC50) is 39.8 µM [falling, single point].

Turning to `COc1ccc(S(=O)(=O)Nc2cc(C(C)C)c(O)cc2C)cc1`, the AC50 under setting [1] is 25.1 µM [falling, partial curve]. On the same count and under the same terms, next, `Cc1oc(-c2ccccc2F)nc1Cn1c(SCc2ccccc2F)nc2ccncc21`: 10 µM [falling, partial curve].

On to `COc1ccc(Nc2oc(/C=C/c3ccc(F)cc3)nc2C#N)cc1`, for which, under setting [1], the half-maximal activity concentration (AC50) was 31.6 µM [falling, single point]. The same measure, in the same setting: next, `CC(=O)Nc1ccc(S(=O)(=O)N2CCN(c3cc(C)ccc3C)CC2)cc1`: 10 µM [falling, partial curve]; `Cc1ccc2nc(N3CCN(C(=O)C4COc5ccccc5O4)CC3)sc2c1` (centres undefined): 25.1 µM [falling, single point]. Consider `COC(=O)c1ccc(CSc2nc3c([nH]c4ccccc43)c(=O)n2-c2cccc(OC)c2)o1`, for which the AC50 under setting [1] is 15.8 µM [rising, partial curve, poor fit]. `Cc1ccnc(NS(=O)(=O)c2ccc(NC(=O)c3cc(=O)c4ccc(C)c(C)c4o3)cc2)n1`: the concentration at half-maximal activity (AC50) under setting [1] is 15.8 µM [falling, partial curve].

Consider `Cc1ccc(-c2nc(-c3ccccn3)no2)cc1Cl`, for which the AC50 under setting [1] was 2 µM [falling, full curve].

With `COc1ccc(-c2nc3ccccc3o2)cc1NC(=O)c1ccc(N2CCC(C)CC2)c([N+](=O)[O-])c1`, the AC50 under setting [1] is 3.98 µM [rising, partial curve]. Regarding `O=C(CN1CCCN(S(=O)(=O)c2ccc(F)cc2)CC1)Nc1ccccc1Br`, under setting [1], the AC50 was 31.6 µM [falling, single point].

For the compound `CCc1nc(C)cn1S(=O)(=O)c1cc(Br)c(C)cc1OC`, the half-maximal activity concentration (AC50) under setting [1] was 20 µM [falling, partial curve].

Take `Cc1nn(Cc2ccccc2)c(C)c1NC(=O)c1cc(C(C)C)on1`: the AC50 under setting [1] was 25.1 µM [falling, single point]. The same measure, in the same setting: next, `Cc1ccc(C(=O)c2cn(Cc3ccc(F)cc3)c3nc(C)ccc3c2=O)cc1`: 31.6 µM [falling, partial curve]. In the case of `CCOc1ccc(C(=O)Nc2c(C(N)=O)oc3ccccc23)cc1`, the half-maximal activity concentration (AC50) under setting [1] is 10 µM [falling, partial curve]. For the compound `O=C(CN1C(=O)COc2ccc(S(=O)(=O)Nc3ccccc3)cc21)NCc1ccccc1Cl`, the concentration at half-maximal activity (AC50) under setting [1] is 25.1 µM [falling, single point]. For `CCOC(=O)c1ccc(N2C(=O)c3[nH]nc(-c4ccccc4)c3C2c2cccs2)cc1` (centres undefined), the half-maximal activity concentration (AC50) under setting [1] was 15.8 µM [falling, partial curve]. For `COc1ccc(CCNc2nc(SCc3ccccc3Cl)nc3ccccc23)cc1OC`, under setting [1], the AC50 is 6.31 µM [rising, partial curve, poor fit]. The same measure, in the same setting: next, `O=C(CSc1nc2c(c(=O)[nH]1)CN(Cc1ccc(F)cc1)CC2)Nc1cccc(C(F)(F)F)c1`: 10 µM [falling, partial curve]; `Cc1cc(C)nc(-n2nc(C)c3c2NC(=O)CC3c2ccccc2OC(C)C)n1` (centres undefined): 15.8 µM [falling, partial curve]. `Cc1ccc(S(=O)(=O)NCCC(=O)Nc2nnc(C3CC3)s2)cc1C`: under setting [1], the half-maximal activity concentration (AC50) is 10 µM [falling, partial curve]. On to `COC(=O)c1ccccc1NC(=O)c1cc(-c2ccc(OC)c(OC)c2)on1`, for which the AC50 under setting [1] is 3.16 µM [falling, partial curve].

`COc1ccc(-c2[nH]c(-c3ccccc3)nc2SCC(=O)NC2CCCC2)cc1`: under setting [1], the AC50 is 39.8 µM [falling, partial curve]. As to `COc1ccc(CCNC(=O)c2cc3c(=O)n(C)c4cc(Cl)ccc4c3s2)cc1OC`, the AC50 under setting [1] is 6.31 µM [rising, full curve].

For the compound `COc1ccc(-c2cc(NCc3ccc(C)cc3)n3cnnc3n2)cc1`, under setting [1], the concentration at half-maximal activity (AC50) is 39.8 µM [falling, single point].

Consider `COc1cccc(NC(=O)C(=O)NCCc2sc(-c3cccc(C)c3)nc2C)c1`, for which the AC50 under setting [1] was 0.398 µM [falling, full curve]. Still for that read-out and setting: next, `COc1ccc(Nc2nc(N)nc(CSc3nc4ccccc4s3)n2)cc1`: 25.1 µM [falling, partial curve].

`CCc1ccc(-c2nc(CN3CCCC(C(=O)NCCc4ccc(OC)c(OC)c4)C3)c(C)o2)cc1` (centres undefined): the concentration at half-maximal activity (AC50) under setting [1] is 12.6 µM [falling, partial curve].

Regarding `COc1ccccc1CNc1ncnc2ccc(-c3c(C)noc3C)cc12`, under setting [1], the concentration at half-maximal activity (AC50) was 631 nM [rising, full curve] [measured here: IkB-luc green channel]. For `COC(=O)c1ccccc1S(=O)(=O)N1CCC(c2nc3ccccc3o2)CC1`, the AC50 under setting [1] is 10 µM [falling, partial curve].

For the compound `COc1ccc2nc(Nc3nc(C)c(C(C)=O)s3)sc2c1`, the AC50 runs as follows: under setting [2], 3.98 µM [rising, single point]; under setting [3], 39.8 µM [falling, single point]. `O=C(c1ccc2c(c1)N(Cc1ccccc1F)C(=O)c1ccccc1S2(=O)=O)N1CCCCCC1`: the half-maximal activity concentration (AC50) under setting [1] was 3.16 µM [falling, single point].

As for `C[C@@H]1CN(CCCn2c3ccccc3c3ccccc32)C[C@H](C)N1`, under setting [1], the half-maximal activity concentration (AC50) is 50.1 µM [falling, partial curve, poor fit].

Turning to `Cc1cc(N2CCCCC2)nc2ccc(NC(=O)CCC(=O)N3CCN(c4cccc(Cl)c4)CC3)cc12`, under setting [1], the AC50 is 15.8 µM [falling, partial curve]. For the compound `CS(=O)(=O)c1nc(-c2ccco2)cc(C(F)(F)F)n1`, the half-maximal activity concentration (AC50) is 6.31 µM [rising, single point] under setting [2] and 10 µM [falling, partial curve] under setting [3]. Take `CCOc1ccc(CCNC(=O)c2ccc3[nH]c(C)c(C)c3c2)cc1`: the AC50 under setting [1] was 31.6 µM [falling, partial curve, poor fit]. Same read-out and setting: next, `Cc1ccc2scc(N3CCN(c4ccccc4)CC3)c(=O)c2c1`: 39.8 µM [falling, single point]. Turning to `CCCN1C(=O)C(O)(C/C(C)=N/O)c2ccccc21` (centres undefined), the AC50 under setting [1] is 200 nM [rising, full curve] [measured here: IkB-luc green channel]. Still for that read-out and setting: next, `O=C(C1COc2ccccc2O1)N(Cc1cccnc1)c1nc2ccc(F)cc2s1` (centres undefined): 39.8 µM [falling, single point]; `Fc1ccccc1CSc1nnc(-c2cccs2)o1`: 1.26 µM [rising, partial curve]. Consider `N#CC1=C(SCC(=O)Nc2cccc3cccnc23)NC(=O)C(C#N)C12CCCCC2` (centres undefined), for which the AC50 under setting [1] is 15.8 µM [falling, partial curve].

Turning to `Cc1ccc(-c2nnc(N3CCN(C(=O)c4ccco4)CC3)c3ccccc23)cc1`, the AC50 under setting [1] is 15.8 µM [falling, partial curve].

As to `CCCCC(=O)NC1(C(F)(F)F)C(=O)Nc2c1c(=O)[nH]c(=O)n2-c1ccc(F)cc1` (centres undefined), the half-maximal activity concentration (AC50) under setting [1] was 3.16 µM [falling, partial curve].

For the compound `CCC1CCCCN1C(=O)Cn1c(=O)n(-c2ccccc2C(F)(F)F)c(=O)c2c(C)c(C(=O)N(C)C)sc21` (centres undefined), the AC50 under setting [1] is 12.6 µM [falling, partial curve, poor fit]. Regarding `CCOc1ccc(NC(=O)C(CC)n2nc(-c3ccc(C)c(C)c3)ccc2=O)cc1` (centres undefined), under setting [1], the AC50 was 39.8 µM [falling, partial curve]. Consider `Cc1ccc(-c2cc(C(=O)NCC3CCCO3)no2)cc1` (centres undefined), for which, under setting [1], the AC50 was 12.6 µM [falling, partial curve].

As for `COc1ccccc1N1CCN(C(c2ccccc2)c2nnc(-c3ccccc3Cl)o2)CC1` (centres undefined), the half-maximal activity concentration (AC50) under setting [1] was 12.6 µM [falling, partial curve, poor fit].

For `Cc1ccc(NC(=O)Cn2c(=O)n(Cc3nc(-c4ccccc4)no3)c(=O)c3cc4c(cc32)OCO4)cc1C`, under setting [1], the AC50 is 12.6 µM [falling, partial curve]. For `COc1ccc(NC(=O)c2sc3nc[nH]c(=O)c3c2C)cc1`, the AC50 under setting [1] was 1 µM [rising, single point].

`Cc1cc(C)cc(OCC(=O)Nc2ccccc2C(=O)NCc2ccco2)c1`: the AC50 under setting [1] was 10 µM [falling, partial curve]. Consider `Cc1cc(N2CCN(C(=O)c3ccco3)CC2)n2ncc(-c3ccccc3)c2n1`, for which the concentration at half-maximal activity (AC50) under setting [1] is 20 µM [falling, partial curve].

As for `O=C1CC(c2ccccc2)Cc2[nH]c(=O)c(-c3nc(-c4ccc(F)cc4)cs3)cc21` (centres undefined), the AC50 is, setting by setting: under setting [2], 3.98 µM [rising, full curve, poor fit]; under setting [3], 7.94 µM [falling, partial curve].

Regarding `O=C(CN1C(=O)COc2ccc(S(=O)(=O)N3CCCC3)cc21)N1CCN(c2ccccc2F)CC1`, the half-maximal activity concentration (AC50) under setting [1] is 3.98 µM [falling, partial curve, poor fit]. Still for that read-out and setting: next, `C=CCn1c(SCC(=O)NCCOC)nc2scc(-c3ccco3)c2c1=O`: 1.26 µM [falling, partial curve].

Consider `COc1ccc(-c2noc(-c3ccc(N4CCCCC4)c([N+](=O)[O-])c3)n2)cc1`, for which the AC50 under setting [1] is 1.26 µM [falling, full curve]. With `Cc1ccc(-c2nc(Nc3ccccc3)n[nH]2)cc1`, the AC50 under setting [1] was 3.16 µM [falling, partial curve]. For the compound `CCc1ccc2oc(-c3cc(N)ccc3Cl)nc2c1`, the half-maximal activity concentration (AC50) under setting [1] was 3.98 µM [falling, partial curve]. Still for that read-out and setting: the figure for `COc1ccccc1-c1cn[nH]c(=S)n1` is 12.6 µM [falling, partial curve]; for `CC(=O)Nc1ccc(S(=O)(=O)N2CCSC2c2ccc(Cl)cc2)cc1` (centres undefined) it is 12.6 µM [falling, partial curve]. Take `Cc1csc2nc(COc3ccc(NC(=O)COc4ccc(F)cc4)cc3)cc(=O)n12`: under setting [1], the AC50 is 0.0794 µM [rising, full curve].

With `Cc1ccc(NC(=O)Cn2cc(S(=O)(=O)N3CCN(c4ccccc4F)CC3)c3ccccc3c2=O)cc1F`, the AC50 under setting [1] was 5.01 µM [falling, partial curve].
